Measurements reported in patent US10702575B2, “Pharmaceutical composition for preventing or treating mycobacterium species infection and method using the same” (Seoul National University R&DB Foundation, priority 2017, dated 2020).
Some of these results come from one statement about several compounds together. *1 amine or outer side, *2 acyl side, *3 side chain or, on linkers, in order; H or OH if unused. Where a SMILES comes first, the peptide text is derived from it. Bridges are numbered along the chain shown (N, C = ends). [ ]: non-standard residue; d: D form. The star is where a group is joined. ξ: configuration not given here. NMeTrp(4-OMe) = CN[CH](Cc1c[nH]c2cccc(OC)c12)C(=O)O; X1 = O=C(C(N[*:1])C(O)c1ccccc1)[*:2]; ξNMe2Val = CC(C)C(C(=O)*)N(C)C; NMeT = CN[CH](C(=O)O)[CH](C)O; NMeL = CN[CH](CC(C)C)C(=O)O; NMeV = CN[CH](C(=O)O)C(C)C

Tested on: AMP-activated protein kinase (AMPK) cell signaling pathway
Type: cell-based, mouse
Details: macrophage treated with OMS-A or OMS-B; then gradually decreased

Structure (SMILES) | time within which AMPK phoshorylation rapidly increased [h]
CNC(C(=O)NC(C(=O)NC1C(=O)N(C)C(C(C)O)C(=O)NC(C(C)C)C(=O)N(C)C(CC(C)C)C(=O)NC(C(C)C)C(=O)N(C)C(C(C)C)C(=O)N(C)C(Cc2c[nH]c3cccc(OC)c23)C(=O)NC(C(C)C)C(=O)NC(C(O)c2ccccc2)C(=O)NC(C(C)C)C(=O)OC1C)C(C)C)C(C)C (centres unmarked) [OMS-A, Ohmyungsamycin A] (H-[NMeV]VT[NMeT]V[NMeL]V[NMeV][NMeTrp(4-OMe)]V[X1]V; ester 3-C; configuration not given here) | ≤ 1
COc1cccc2[nH]cc(CC3C(=O)NC(C(C)C)C(=O)NC(C(O)c4ccccc4)C(=O)NC(C(C)C)C(=O)OC(C)C(NC(=O)C(NC(=O)C(C(C)C)N(C)C)C(C)C)C(=O)N(C)C(C(C)O)C(=O)NC(C(C)C)C(=O)N(C)C(CC(C)C)C(=O)NC(C(C)C)C(=O)N(C)C(C(C)C)C(=O)N3C)c12 (centres unmarked) [OMS-B, Ohmyungsamycin B] (ξNMe2Val-VT[NMeT]V[NMeL]V[NMeV][NMeTrp(4-OMe)]V[X1]V; ester 2-C; configuration not given here) | ≤ 1
